Experimental findings from article PMC3691119 are described below.

In experiment [1] the target is T1, Chtop-ECFP (UniProt Q9Y3Y2).
T1 sequence: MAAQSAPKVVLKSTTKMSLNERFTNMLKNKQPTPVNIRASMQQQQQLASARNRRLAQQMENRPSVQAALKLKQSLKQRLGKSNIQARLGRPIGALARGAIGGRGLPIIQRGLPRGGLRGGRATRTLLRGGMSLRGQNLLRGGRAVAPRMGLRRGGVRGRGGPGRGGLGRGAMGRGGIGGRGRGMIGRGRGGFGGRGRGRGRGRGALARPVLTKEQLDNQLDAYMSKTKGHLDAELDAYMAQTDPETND
The experiment can be described thus: FRET or BRET; FLIM-FRET (TCSPC, multiphoton excitation 850 nm) in live HeLa cells without Adox; ECFP fusion donor, EYFP fusion acceptor; FRET efficiency as mean over the whole nucleus; >5% taken as a significant interaction; cells also imaged after actinomycin D.

The target of experiment [2] is T1, Chtop-ECFP. Briefly: FRET or BRET; sensitized emission FRET (normalized FRET, NFRET) in live HeLa cells; ECFP fusion donor, EYFP fusion acceptor; mean over the whole nucleus; NFRET >5% taken as a significant interaction; cells also imaged after 2 h 10 ug/ml actinomycin D. For orientation: Bioluminescence resonance energy transfer reports proximity on the nanometre scale.

These are yes or no findings as the source states them, for the method shown. In cells and extracts the contact can be indirect. Some results given as binding are weak or reduced against the parent protein; the word gives no strength. Tags and fused reporters may be left off the sequences shown.

B1: Nxf1C-terminus-EYFP (domain or fragment, UniProt Q9UBU9 372-619)
chain: PCKGSYFGTENLKSLVLHFLQQYYAIYDSGDRQGLLDAYHDGACCSLSIPFIPQNPARSSLAEYFKDSRNVKKLKDPTLRFRLLKHTRLNVVAFLNELPKTQHDVNSFVVDISAQTSTLLCFSVNGVFKEVDGKSRDSLRAFTRTFIAVPASNSGLCIVNDELFVRNASSEEIQRAFAMPAPTPSSSPVPTLSPEQQEMLQAFSTQSGMNLEWSQKCLQDNNWDYTRSAQAFTHLKAKGEIPEVAFMK
As for B1, the binding entry in the experiment with Chtop-ECFP [1] and in the experiment with Chtop-ECFP [2] was “binds” throughout.
